Laboratory results: PubChem BioAssay AID1159578 (Peter MacCallum Cancer Centre, 2015)

Test: 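Genome-wide hunt for genes controlling movement of lymphatic endothelial cells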 (primary screen)
Cells: human lymphatic endothelial cells
Reagents: siRNA pool against human genes, 40 nM
Time to read-out: 48 h after transfection
Detection: 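Cells stained with dye and imaged after a scratch; covered wound area and nuclei counted, duplicates averaged, migration set against mock wells and turned into a robust z-score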
Scale: migration robust z-score: higher = faster migration into the scratch; migration relative to mock: higher = more scratch area covered than mock; nuclei per well: higher = more cells in the well
Active means: 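Pools averaging fewer than 3300 nuclei are never called; remaining pools count as changed when migration robust z lies outside -2 to 2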
Calls: active = migration changed; inactive = no migration change, or too few cells
This is a random part of about 18,000 deposited reagents. About 1,030 of them (5.7%) count as active. 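Inactive calls also include pools with fewer than 3300 nuclei, whose migration was not assessed.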 The raw values are shown without normalisation. Entries without a mark were called inactive.

gene | migration robust z-score | migration class with cell-count check | migration relative to mock | nuclei per well, duplicate mean
HLA-DQB1 (major histocompatibility complex, class II, DQ beta 1) | -0.21 | migration z between -2 and 2; enough cells | 0.76 | 5432
TNFSF14 (TNF superfamily member 14) | 0.5 | migration z between -2 and 2; enough cells | 1.02 | 6670
EVL (Enah/Vasp-like) | 0.09 | migration z between -2 and 2; enough cells | 0.91 | 5700
WWTR1 (WW domain containing transcription regulator 1) | -0.2 | migration z between -2 and 2; enough cells | 0.84 | 5748
ELP6 (elongator acetyltransferase complex subunit 6) | -1.57 | migration z between -2 and 2; enough cells | 0.48 | 5468
DCAF8L1 (DDB1 and CUL4 associated factor 8 like 1) | -0.86 | migration z between -2 and 2; enough cells | 0.65 | 3388
EREG (epiregulin) | 0.88 | migration z between -2 and 2; enough cells | 0.98 | 4210
CCNE2 (cyclin E2) | 0.18 | migration z between -2 and 2; enough cells | 0.94 | 6590
CHRDL2 (chordin like 2) | 0.35 | migration z between -2 and 2; enough cells | 0.98 | 7831
BGLAP (bone gamma-carboxyglutamate protein) | -1.8 | under 3300 nuclei; migration not judged | 0.42 | 2954
TAC1 (tachykinin precursor 1) | 1.19 | migration z between -2 and 2; enough cells | 1.19 | 6458
KLF8 (KLF transcription factor 8) | 0.01 | migration z between -2 and 2; enough cells | 0.88 | 5616
RASSF1 (Ras association domain family member 1) | 1.53 | migration z between -2 and 2; enough cells | 1.28 | 5240
USP17L2 (ubiquitin specific peptidase 17 like family member 2) | -0.57 | migration z between -2 and 2; enough cells | 0.7 | 5649
PPP4R3B (protein phosphatase 4 regulatory subunit 3B) | -1.44 | migration z between -2 and 2; enough cells | 0.52 | 6432
RAB4B (RAB4B, member RAS oncogene family) | -0.11 | migration z between -2 and 2; enough cells | 0.78 | 3477
POC5 (POC5 centriolar protein) | 1.84 | migration z between -2 and 2; enough cells | 1.38 | 4660
EDNRA (endothelin receptor type A) | 0.5 | migration z between -2 and 2; enough cells | 0.9 | 6794
PGM3 (phosphoglucomutase 3) | -0.31 | migration z between -2 and 2; enough cells | 0.74 | 6809
H3C6 (H3 clustered histone 6) | 0.26 | migration z between -2 and 2; enough cells | 0.95 | 5614

8 entries from above, reformatted:
{"gene": "CHRDL2 (chordin like 2)", "migration robust z-score": 0.35, "migration class with cell-count check": "migration z between -2 and 2; enough cells", "migration relative to mock": 0.98, "nuclei per well, duplicate mean": 7831}
{"gene": "BGLAP (bone gamma-carboxyglutamate protein)", "migration robust z-score": -1.8, "migration class with cell-count check": "under 3300 nuclei; migration not judged", "migration relative to mock": 0.42, "nuclei per well, duplicate mean": 2954}
{"gene": "TAC1 (tachykinin precursor 1)", "migration robust z-score": 1.19, "migration class with cell-count check": "migration z between -2 and 2; enough cells", "migration relative to mock": 1.19, "nuclei per well, duplicate mean": 6458}
{"gene": "KLF8 (KLF transcription factor 8)", "migration robust z-score": 0.01, "migration class with cell-count check": "migration z between -2 and 2; enough cells", "migration relative to mock": 0.88, "nuclei per well, duplicate mean": 5616}
{"gene": "RASSF1 (Ras association domain family member 1)", "migration robust z-score": 1.53, "migration class with cell-count check": "migration z between -2 and 2; enough cells", "migration relative to mock": 1.28, "nuclei per well, duplicate mean": 5240}
{"gene": "USP17L2 (ubiquitin specific peptidase 17 like family member 2)", "migration robust z-score": -0.57, "migration class with cell-count check": "migration z between -2 and 2; enough cells", "migration relative to mock": 0.7, "nuclei per well, duplicate mean": 5649}
{"gene": "PPP4R3B (protein phosphatase 4 regulatory subunit 3B)", "migration robust z-score": -1.44, "migration class with cell-count check": "migration z between -2 and 2; enough cells", "migration relative to mock": 0.52, "nuclei per well, duplicate mean": 6432}
{"gene": "RAB4B (RAB4B, member RAS oncogene family)", "migration robust z-score": -0.11, "migration class with cell-count check": "migration z between -2 and 2; enough cells", "migration relative to mock": 0.78, "nuclei per well, duplicate mean": 3477}

Further records follow:
gene | migration robust z-score | migration class with cell-count check | migration relative to mock | nuclei per well, duplicate mean
PGCKA1 (PDCD10 and GCKIII kinases associated 1) | 1.21 | migration z between -2 and 2; enough cells | 1.2 | 5548
GABRG2 (gamma-aminobutyric acid type A receptor subunit gamma2) | 0 | migration z between -2 and 2; enough cells | 0.8 | 4878
FCRLB (Fc receptor like B) | -0.02 | migration z between -2 and 2; enough cells | 0.88 | 5930
LIMS1 (LIM zinc finger domain containing 1) | -1.04 | migration z between -2 and 2; enough cells | 0.62 | 6795
BCL2L15 (BCL2 like 15) | 0.32 | migration z between -2 and 2; enough cells | 0.97 | 5683
MS4A13 (membrane spanning 4-domains A13) | 0.94 | migration z between -2 and 2; enough cells | 1.12 | 7486
TCTA (T cell leukemia translocation altered) | 0.47 | migration z between -2 and 2; enough cells | 1.01 | 5362
DIPK1A (divergent protein kinase domain 1A) | -1.52 | migration z between -2 and 2; enough cells | 0.48 | 3975
OR2H1 (olfactory receptor family 2 subfamily H member 1) | -0.6 | migration z between -2 and 2; enough cells | 0.73 | 6671
INKA1 (inka box actin regulator 1) | 0.86 | migration z between -2 and 2; enough cells | 1.11 | 5525
STN1 (STN1 subunit of CST complex) | 1 | migration z between -2 and 2; enough cells | 1.15 | 6692
HOXC11 (homeobox C11) | -0.24 | migration z between -2 and 2; enough cells | 0.76 | 6110
OR52B4 (olfactory receptor family 52 subfamily B member 4) | -0.01 | migration z between -2 and 2; enough cells | 0.89 | 6172
WFS1 (wolframin ER transmembrane glycoprotein) | -1.79 | migration z between -2 and 2; enough cells | 0.46 | 4586
ZBTB48 (zinc finger and BTB domain containing 48) | -0.08 | migration z between -2 and 2; enough cells | 0.79 | 5990
CNIH4 (cornichon family member 4) | 0.33 | migration z between -2 and 2; enough cells | 0.97 | 6275
ZNF658 (zinc finger protein 658) | -0.16 | migration z between -2 and 2; enough cells | 0.84 | 4262
IL36B (interleukin 36 beta) | -0.1 | migration z between -2 and 2; enough cells | 0.86 | 5943
TNFRSF10A (TNF receptor superfamily member 10a) | -0.39 | migration z between -2 and 2; enough cells | 0.73 | 4238
PLAC1 (placenta associated 1) | -0.34 | migration z between -2 and 2; enough cells | 0.8 | 5215
HTR3B (5-hydroxytryptamine receptor 3B) | 0.52 | migration z between -2 and 2; enough cells | 0.9 | 5190
WSCD1 (WSC domain sialate O sulfotransferase 1) | 0.57 | migration z between -2 and 2; enough cells | 1.04 | 5497
ALX3 (ALX homeobox 3) | -1.14 | migration z between -2 and 2; enough cells | 0.58 | 4358
COQ7 (coenzyme Q7, hydroxylase) | 0.75 | migration z between -2 and 2; enough cells | 1.08 | 5948
KRTAP15-1 (keratin associated protein 15-1) | 0.56 | migration z between -2 and 2; enough cells | 1.03 | 5106
CA10 (carbonic anhydrase 10 (inactive)) | -1.09 | migration z between -2 and 2; enough cells | 0.6 | 6352
EHHADH (enoyl-CoA hydratase and 3-hydroxyacyl CoA dehydrogenase) | -1.12 | migration z between -2 and 2; enough cells | 0.59 | 5924
ZNF43 (zinc finger protein 43) | -0.43 | migration z between -2 and 2; enough cells | 0.77 | 4691
CDC42EP1 (CDC42 effector protein 1) | -0.9 | migration z between -2 and 2; enough cells | 0.65 | 4583
FGFR1 (fibroblast growth factor receptor 1) | -3.4 | under 3300 nuclei; migration not judged | 0.15 | 2488
SPINK9 (serine peptidase inhibitor Kazal type 9) | 0.81 | migration z between -2 and 2; enough cells | 1.1 | 6092
OR10AG1 (olfactory receptor family 10 subfamily AG member 1) | 0.5 | migration z between -2 and 2; enough cells | 1.02 | 5210
PLBD1 (phospholipase B domain containing 1) | -0.74 | migration z between -2 and 2; enough cells | 0.69 | 4494
GOLM1 (golgi membrane protein 1) | 1.58 | migration z between -2 and 2; enough cells | 1.29 | 6592
AGGF1 (angiogenic factor with G-patch and FHA domains 1) | 1.84 | migration z between -2 and 2; enough cells | 1.36 | 7262
VIP (vasoactive intestinal peptide) | 0.37 | migration z between -2 and 2; enough cells | 0.98 | 6236
CHRD (chordin) | -1.04 | migration z between -2 and 2; enough cells | 0.62 | 4590
